PubChem BioAssay AID1224826 | NIAID – 2016
Shown is one part, drawn at random, of about 17,000 reagents. Of all reagents, about 1,110 (6.6%) were called active. 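Active means lowered or raised reporter signal; replicate intensities are raw and not normalised per plate.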 Entries without a mark were called inactive. The numbers tell different reagents against one gene apart. Not all columns of the deposit are shown.

Purpose: 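Genes that change LPS-induced Tnf promoter activity in mouse macrophages when knocked down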 (primary screen)
System: RAW264.7 G9 macrophages from mouse bearing reporters for p65 (GFP) and the Tnf promoter (mCherry)
Reagents: siRNA pool against mouse genes, 100 nM
Time to read-out: 16 h of LPS stimulation, after 2 days of siRNA transfection
Conditions: bacterial lipopolysaccharide (Salmonella minnesota R595), 10 ng/ml
Measurement: 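Nuclear mCherry signal of the Tnf promoter reporter measured by imaging after background removal, scaled to each plate median and turned into robust z-scores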
Direction: Tnf reporter robust z-score: higher = stronger Tnf promoter reporter signal after LPS
Call rule: 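a well counts as active at a score of -1.3 or below (Tlr4 knock-down control median) or above 3 (raised signal); controls and wells holding fewer than 50 cells are excluded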
Meaning of the calls: active = Tnf reporter clearly lowered or raised; inactive = no clear change in Tnf reporter

Which result is listed for Adcy4?
Tnf reporter robust z-score: -0.11; fewer than 50 cells in well: enough cells in well

For Carhsp1, what was measured?
Tnf reporter robust z-score: -1.24; fewer than 50 cells in well: enough cells in well

For Cryga, what was measured?
Tnf reporter robust z-score: -0.09; fewer than 50 cells in well: enough cells in well

How did the screen score Rasgrf2?
Tnf reporter robust z-score: 2.13; fewer than 50 cells in well: enough cells in well

Which result is listed for Mrpl4?
Tnf reporter robust z-score: -0.5; fewer than 50 cells in well: enough cells in well

For Clstn3, what was measured?
Tnf reporter robust z-score: -0.51; fewer than 50 cells in well: enough cells in well

What is on record for Pgp?
Tnf reporter robust z-score: 3.5 (active); fewer than 50 cells in well: enough cells in well

For Chchd7, how do the results read?
Tnf reporter robust z-score: 0.94; fewer than 50 cells in well: enough cells in well

What did the screen give for Zwint?
Tnf reporter robust z-score: -0.5; fewer than 50 cells in well: enough cells in well

Which result is listed for Zfp688?
fewer than 50 cells in well: fewer than 50 cells per well; well left out of calls

With Mllt10, what does the deposit list?
Tnf reporter robust z-score: 0.16; fewer than 50 cells in well: enough cells in well

Which result is listed for Ptprm?
Tnf reporter robust z-score: 0.33; fewer than 50 cells in well: enough cells in well

With Psmd9, how do the results read?
Tnf reporter robust z-score: 1.32; fewer than 50 cells in well: enough cells in well

What is on record for Hcrt?
Tnf reporter robust z-score: 2.33; fewer than 50 cells in well: enough cells in well

With Cenpo, how do the results read?
Tnf reporter robust z-score: 0.72; fewer than 50 cells in well: enough cells in well

For Cdc16, how do the results read?
Tnf reporter robust z-score: 0.01; fewer than 50 cells in well: enough cells in well

With Taf9 #1, what does the deposit list?
Tnf reporter robust z-score: -0.37; fewer than 50 cells in well: enough cells in well

Which result is listed for Taf9 #2?
Tnf reporter robust z-score: 1.33; fewer than 50 cells in well: enough cells in well

For Pcbp3, what was measured?
Tnf reporter robust z-score: -0.77; fewer than 50 cells in well: enough cells in well

With Vmn1r32, what was measured?
Tnf reporter robust z-score: -1.16; fewer than 50 cells in well: enough cells in well

With Pdk3, what was measured?
Tnf reporter robust z-score: -1.47 (active); fewer than 50 cells in well: enough cells in well

Targets listed so far whose gene name begins with M or m (2):
Mrpl4 → Tnf reporter robust z-score: -0.5; fewer than 50 cells in well: enough cells in well
Mllt10 → Tnf reporter robust z-score: 0.16; fewer than 50 cells in well: enough cells in well
